According to the supplement of paper PMC12823440, “Inhibitors supercharge kinase turnover through native proteolytic circuits” (Nature, 2025):
Where a name gives a salt, the structure may show the parent alone. This is one part of the list. Hit calls seldom repeat between salt and free forms of one compound.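 Kinases, fused to nanoluciferase, were expressed in K562 cells; luminescence was measured every 4 h from 2 to 18 h as percent of control (DMSO = 100%, positive control = 0%). A time point is decreased if signal falls significantly (2 sigma). Hits were called by the authors by a rule that is not shown; the count of time points alone does not decide it.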

Amino acid sequences for entries named in this document (tags omitted). A change or cut given only in a name is not applied to a line headed by its entry.
UniProt Q9BRS2: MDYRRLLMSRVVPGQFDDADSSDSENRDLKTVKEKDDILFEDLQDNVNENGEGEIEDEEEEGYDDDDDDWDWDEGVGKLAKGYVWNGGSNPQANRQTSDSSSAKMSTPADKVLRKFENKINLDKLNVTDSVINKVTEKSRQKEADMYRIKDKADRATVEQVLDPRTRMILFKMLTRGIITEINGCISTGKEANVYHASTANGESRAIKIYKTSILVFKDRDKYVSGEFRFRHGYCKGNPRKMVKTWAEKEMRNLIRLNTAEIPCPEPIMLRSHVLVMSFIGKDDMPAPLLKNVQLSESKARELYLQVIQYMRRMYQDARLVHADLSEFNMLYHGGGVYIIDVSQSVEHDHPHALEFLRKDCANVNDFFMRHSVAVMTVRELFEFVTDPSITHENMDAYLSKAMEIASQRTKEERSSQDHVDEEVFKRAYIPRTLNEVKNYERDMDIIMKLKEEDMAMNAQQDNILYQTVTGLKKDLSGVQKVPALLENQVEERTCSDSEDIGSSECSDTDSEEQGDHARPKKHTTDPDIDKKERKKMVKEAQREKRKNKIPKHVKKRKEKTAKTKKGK
UniProt Q13546: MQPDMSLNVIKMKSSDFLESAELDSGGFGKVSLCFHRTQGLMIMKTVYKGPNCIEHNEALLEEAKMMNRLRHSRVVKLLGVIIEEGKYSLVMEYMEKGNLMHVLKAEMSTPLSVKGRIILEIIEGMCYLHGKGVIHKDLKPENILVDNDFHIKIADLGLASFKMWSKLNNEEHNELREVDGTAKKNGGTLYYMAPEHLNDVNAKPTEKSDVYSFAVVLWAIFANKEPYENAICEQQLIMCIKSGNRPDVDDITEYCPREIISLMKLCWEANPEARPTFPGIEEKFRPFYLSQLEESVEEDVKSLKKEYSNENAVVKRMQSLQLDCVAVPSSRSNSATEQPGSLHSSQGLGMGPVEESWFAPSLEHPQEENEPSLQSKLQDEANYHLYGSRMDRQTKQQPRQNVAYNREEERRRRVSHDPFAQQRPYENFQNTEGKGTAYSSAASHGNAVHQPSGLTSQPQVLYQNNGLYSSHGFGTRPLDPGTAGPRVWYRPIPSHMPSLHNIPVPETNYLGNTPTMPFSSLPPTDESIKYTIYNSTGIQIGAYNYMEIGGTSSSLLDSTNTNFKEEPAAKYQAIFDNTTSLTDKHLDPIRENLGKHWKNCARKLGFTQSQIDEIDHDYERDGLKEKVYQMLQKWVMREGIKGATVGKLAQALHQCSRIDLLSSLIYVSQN
UniProt Q01974, whole entry: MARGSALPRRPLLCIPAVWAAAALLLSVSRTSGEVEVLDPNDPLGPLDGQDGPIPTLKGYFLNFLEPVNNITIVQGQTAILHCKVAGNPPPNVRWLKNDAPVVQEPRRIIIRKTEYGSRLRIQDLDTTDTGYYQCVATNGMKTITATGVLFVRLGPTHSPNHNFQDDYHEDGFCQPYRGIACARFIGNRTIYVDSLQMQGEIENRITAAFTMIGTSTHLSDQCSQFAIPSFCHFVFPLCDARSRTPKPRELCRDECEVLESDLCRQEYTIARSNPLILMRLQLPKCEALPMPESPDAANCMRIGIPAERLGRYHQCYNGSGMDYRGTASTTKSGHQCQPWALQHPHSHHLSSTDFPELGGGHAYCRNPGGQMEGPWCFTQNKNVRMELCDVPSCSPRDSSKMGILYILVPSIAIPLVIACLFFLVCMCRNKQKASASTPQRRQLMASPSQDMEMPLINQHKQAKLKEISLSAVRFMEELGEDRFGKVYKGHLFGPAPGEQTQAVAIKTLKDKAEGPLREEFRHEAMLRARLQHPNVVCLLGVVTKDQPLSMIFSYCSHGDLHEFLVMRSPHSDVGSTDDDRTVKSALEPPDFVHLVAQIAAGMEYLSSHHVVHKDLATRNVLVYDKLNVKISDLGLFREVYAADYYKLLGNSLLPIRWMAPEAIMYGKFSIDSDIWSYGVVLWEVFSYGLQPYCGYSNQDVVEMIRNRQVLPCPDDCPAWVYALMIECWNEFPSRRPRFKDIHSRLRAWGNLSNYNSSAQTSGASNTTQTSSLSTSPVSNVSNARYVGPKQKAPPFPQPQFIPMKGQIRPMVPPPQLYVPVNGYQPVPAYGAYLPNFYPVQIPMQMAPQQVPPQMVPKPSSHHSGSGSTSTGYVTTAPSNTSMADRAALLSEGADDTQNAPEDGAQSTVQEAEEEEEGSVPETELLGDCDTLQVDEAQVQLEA
UniProt Q15418, whole entry: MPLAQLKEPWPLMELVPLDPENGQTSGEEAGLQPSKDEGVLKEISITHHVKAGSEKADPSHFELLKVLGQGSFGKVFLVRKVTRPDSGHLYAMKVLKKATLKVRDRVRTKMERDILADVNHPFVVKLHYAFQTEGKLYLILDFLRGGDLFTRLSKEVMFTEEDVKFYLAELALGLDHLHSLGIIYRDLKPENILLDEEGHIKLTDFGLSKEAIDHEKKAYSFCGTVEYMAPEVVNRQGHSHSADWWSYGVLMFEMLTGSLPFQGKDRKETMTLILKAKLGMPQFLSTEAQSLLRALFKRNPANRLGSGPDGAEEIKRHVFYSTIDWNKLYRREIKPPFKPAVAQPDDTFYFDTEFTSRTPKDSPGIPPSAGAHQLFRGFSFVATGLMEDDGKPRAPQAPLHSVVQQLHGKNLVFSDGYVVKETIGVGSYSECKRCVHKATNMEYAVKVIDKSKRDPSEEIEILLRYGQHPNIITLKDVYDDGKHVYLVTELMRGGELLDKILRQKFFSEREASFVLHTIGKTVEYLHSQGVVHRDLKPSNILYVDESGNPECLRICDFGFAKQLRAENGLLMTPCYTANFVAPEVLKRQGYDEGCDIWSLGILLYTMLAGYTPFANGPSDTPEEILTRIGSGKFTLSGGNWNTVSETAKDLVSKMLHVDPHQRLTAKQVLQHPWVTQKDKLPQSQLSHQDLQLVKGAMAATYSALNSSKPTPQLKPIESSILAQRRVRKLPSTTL
UniProt Q9NYA1, whole entry: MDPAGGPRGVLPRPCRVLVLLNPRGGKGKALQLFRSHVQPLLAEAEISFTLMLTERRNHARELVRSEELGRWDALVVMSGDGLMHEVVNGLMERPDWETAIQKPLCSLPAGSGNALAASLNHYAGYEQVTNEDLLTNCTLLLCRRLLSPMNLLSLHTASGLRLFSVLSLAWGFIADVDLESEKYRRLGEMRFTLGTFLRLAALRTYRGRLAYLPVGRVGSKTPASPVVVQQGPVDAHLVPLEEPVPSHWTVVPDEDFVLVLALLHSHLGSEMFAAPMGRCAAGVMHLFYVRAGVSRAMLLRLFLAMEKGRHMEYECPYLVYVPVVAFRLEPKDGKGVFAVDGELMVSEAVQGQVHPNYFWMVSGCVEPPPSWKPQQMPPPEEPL
UniProt Q9Y6E0: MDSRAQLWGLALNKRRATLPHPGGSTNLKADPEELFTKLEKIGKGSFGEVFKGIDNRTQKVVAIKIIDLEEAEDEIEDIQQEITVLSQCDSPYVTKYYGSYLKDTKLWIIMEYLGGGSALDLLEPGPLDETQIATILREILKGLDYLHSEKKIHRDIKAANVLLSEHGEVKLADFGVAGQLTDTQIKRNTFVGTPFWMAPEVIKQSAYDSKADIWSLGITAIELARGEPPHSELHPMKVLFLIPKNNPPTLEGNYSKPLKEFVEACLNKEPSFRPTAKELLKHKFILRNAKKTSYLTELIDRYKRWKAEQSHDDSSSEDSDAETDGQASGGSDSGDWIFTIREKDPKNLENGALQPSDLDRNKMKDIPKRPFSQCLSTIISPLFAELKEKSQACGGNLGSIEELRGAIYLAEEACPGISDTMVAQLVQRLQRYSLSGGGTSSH
UniProt P42680: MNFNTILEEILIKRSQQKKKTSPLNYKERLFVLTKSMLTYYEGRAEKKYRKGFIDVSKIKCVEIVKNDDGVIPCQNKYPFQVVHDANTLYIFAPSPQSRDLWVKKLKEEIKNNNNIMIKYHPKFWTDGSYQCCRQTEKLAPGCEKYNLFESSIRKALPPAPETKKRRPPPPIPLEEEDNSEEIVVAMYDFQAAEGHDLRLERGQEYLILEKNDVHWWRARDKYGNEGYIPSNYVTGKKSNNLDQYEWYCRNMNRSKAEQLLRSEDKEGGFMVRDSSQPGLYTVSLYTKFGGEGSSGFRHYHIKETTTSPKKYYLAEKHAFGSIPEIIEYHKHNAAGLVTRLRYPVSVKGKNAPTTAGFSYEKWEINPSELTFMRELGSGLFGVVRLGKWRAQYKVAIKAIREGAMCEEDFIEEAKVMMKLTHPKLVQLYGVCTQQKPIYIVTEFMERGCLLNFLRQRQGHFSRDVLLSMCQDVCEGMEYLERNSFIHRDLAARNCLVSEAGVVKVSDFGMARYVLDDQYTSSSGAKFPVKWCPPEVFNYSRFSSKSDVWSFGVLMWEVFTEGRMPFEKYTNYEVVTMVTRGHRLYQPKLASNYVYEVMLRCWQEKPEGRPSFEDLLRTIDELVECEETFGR
UniProt P29597: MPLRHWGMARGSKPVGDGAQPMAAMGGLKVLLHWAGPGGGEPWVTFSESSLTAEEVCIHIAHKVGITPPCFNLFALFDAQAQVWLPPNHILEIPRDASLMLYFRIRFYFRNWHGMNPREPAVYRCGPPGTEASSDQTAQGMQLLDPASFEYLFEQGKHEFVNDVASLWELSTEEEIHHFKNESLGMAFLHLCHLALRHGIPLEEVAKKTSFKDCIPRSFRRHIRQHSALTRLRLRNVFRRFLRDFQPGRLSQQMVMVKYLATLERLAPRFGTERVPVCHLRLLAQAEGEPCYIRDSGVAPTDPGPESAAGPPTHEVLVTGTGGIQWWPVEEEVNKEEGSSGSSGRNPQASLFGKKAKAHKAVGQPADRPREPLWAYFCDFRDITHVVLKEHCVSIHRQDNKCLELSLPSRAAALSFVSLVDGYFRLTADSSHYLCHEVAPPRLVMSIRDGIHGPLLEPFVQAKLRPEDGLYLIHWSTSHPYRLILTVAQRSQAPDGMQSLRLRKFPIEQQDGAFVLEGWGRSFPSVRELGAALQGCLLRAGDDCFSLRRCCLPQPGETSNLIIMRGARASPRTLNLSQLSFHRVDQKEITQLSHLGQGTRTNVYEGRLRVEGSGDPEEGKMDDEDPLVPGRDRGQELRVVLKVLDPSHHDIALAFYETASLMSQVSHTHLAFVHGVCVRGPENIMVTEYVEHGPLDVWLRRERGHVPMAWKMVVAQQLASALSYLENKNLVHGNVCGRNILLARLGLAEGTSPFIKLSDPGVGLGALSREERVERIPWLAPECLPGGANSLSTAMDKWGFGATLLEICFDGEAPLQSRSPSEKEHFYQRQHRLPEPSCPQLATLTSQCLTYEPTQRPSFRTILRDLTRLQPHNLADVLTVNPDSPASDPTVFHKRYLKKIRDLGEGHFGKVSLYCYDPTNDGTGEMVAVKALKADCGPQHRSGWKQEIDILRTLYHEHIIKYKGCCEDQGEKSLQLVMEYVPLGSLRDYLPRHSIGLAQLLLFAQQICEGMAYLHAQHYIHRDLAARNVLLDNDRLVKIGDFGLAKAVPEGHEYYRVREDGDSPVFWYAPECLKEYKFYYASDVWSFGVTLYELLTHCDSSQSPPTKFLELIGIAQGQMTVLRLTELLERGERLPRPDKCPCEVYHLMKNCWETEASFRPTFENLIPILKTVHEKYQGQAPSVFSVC
UniProt P43403: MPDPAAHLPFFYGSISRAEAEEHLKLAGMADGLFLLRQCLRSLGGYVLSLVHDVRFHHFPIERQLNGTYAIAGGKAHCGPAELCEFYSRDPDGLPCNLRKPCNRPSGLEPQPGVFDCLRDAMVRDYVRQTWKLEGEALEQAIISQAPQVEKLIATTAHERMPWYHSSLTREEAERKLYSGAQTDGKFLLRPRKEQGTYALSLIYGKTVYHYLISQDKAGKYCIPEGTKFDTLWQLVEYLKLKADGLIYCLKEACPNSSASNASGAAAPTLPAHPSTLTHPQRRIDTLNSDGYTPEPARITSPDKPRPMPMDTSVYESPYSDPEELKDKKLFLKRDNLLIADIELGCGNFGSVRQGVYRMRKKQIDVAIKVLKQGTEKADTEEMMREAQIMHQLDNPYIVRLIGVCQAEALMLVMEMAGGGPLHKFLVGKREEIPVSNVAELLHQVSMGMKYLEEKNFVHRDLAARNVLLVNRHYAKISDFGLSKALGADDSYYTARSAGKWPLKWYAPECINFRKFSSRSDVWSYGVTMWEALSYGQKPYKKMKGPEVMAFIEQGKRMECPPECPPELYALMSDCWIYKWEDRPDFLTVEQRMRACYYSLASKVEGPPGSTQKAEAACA

Assays:
Conditions in all cases: K562; 2-18 h
RET = RET (UniProt P07949); assay: kinase-Nluc reporter destabilization hit call (1 = scored as downregulated) (binary); higher = compound decreases kinase abundance
[1] = biological target: RET_M918T (clone: RET_mut) (UniProt P07949); assay: as above
RIOK1 = RIOK1 (UniProt Q9BRS2); assay: as above
RIPK1 = RIPK1 (UniProt Q13546); assay: as above
RIPK2 = RIPK2 (UniProt O43353); assay: as above
ROR2 = ROR2 (UniProt Q01974); assay: as above
RPS6KA1 = RPS6KA1 (UniProt Q15418); assay: as above
SPHK1 = SPHK1 (UniProt Q9NYA1); assay: as above
SRC = SRC (UniProt P12931); assay: as above
STK24 = STK24 (UniProt Q9Y6E0); assay: as above
STK38 = STK38 (UniProt Q15208); assay: as above
SYK = SYK (UniProt P43405); assay: as above
TEC = TEC (UniProt P42680); assay: as above
TYK2 = TYK2 (UniProt P29597); assay: as above
ULK3 = ULK3 (UniProt Q6PHR2); assay: as above
YES1 = YES1 (UniProt P07947); assay: as above
ZAK = ZAK (UniProt Q9NYL2); assay: as above
ZAP70 = ZAP70 (UniProt P43403); assay: as above
ABL1 = ABL1 (UniProt P00519); assay: number of time points (of 5) at which kinase-Nluc abundance scored as decreased, DMSO-normalised (count); higher = more persistent destabilization
AKT1 = AKT1 (UniProt P31749); assay: as above

Structure (SMILES) | kinase-Nluc reporter destabilization hit call (RET) | kinase-Nluc reporter destabilization hit call [1] | kinase-Nluc reporter destabilization hit call (RIOK1) | kinase-Nluc reporter destabilization hit call (RIPK1) | kinase-Nluc reporter destabilization hit call (RIPK2) | kinase-Nluc reporter destabilization hit call (ROR2) | kinase-Nluc reporter destabilization hit call (RPS6KA1) | kinase-Nluc reporter destabilization hit call (SPHK1) | kinase-Nluc reporter destabilization hit call (SRC) | kinase-Nluc reporter destabilization hit call (STK24) | kinase-Nluc reporter destabilization hit call (STK38) | kinase-Nluc reporter destabilization hit call (SYK) | kinase-Nluc reporter destabilization hit call (TEC) | kinase-Nluc reporter destabilization hit call (TYK2) | kinase-Nluc reporter destabilization hit call (ULK3) | kinase-Nluc reporter destabilization hit call (YES1) | kinase-Nluc reporter destabilization hit call (ZAK) | kinase-Nluc reporter destabilization hit call (ZAP70) | number of time points (ABL1) | number of time points (AKT1)
Nc1ncnc2c1c(-c1cccc(OCc3ccccc3)c1)cn2C1CC(CN2CCC2)C1 (stereo not given) (2.5 µM) | inactive: 0 | inactive: 0 | inactive: 0 | inactive: 0 | inactive: 0 | inactive: 0 | inactive: 0 | inactive: 0 | inactive: 0 | inactive: 0 | inactive: 0 | inactive: 0 | inactive: 0 | inactive: 0 | inactive: 0 | inactive: 0 | inactive: 0 | inactive: 0 | 3 | 0
Cc1cc(CN2CCN(c3c(Br)cnc4nc(-c5ccc(N6CCN(C)CC6)cc5)[nH]c34)CC2)no1 (2.5 µM) | inactive: 0 | inactive: 0 | inactive: 0 | inactive: 0 | inactive: 0 | inactive: 0 | inactive: 0 | inactive: 0 | inactive: 0 | inactive: 0 | inactive: 0 | inactive: 0 | inactive: 0 | inactive: 0 | inactive: 0 | inactive: 0 | inactive: 0 | inactive: 0 | 0 | 0
COc1ccc2c(OCc3nnc4ccc(-c5ccccc5)nn34)ccnc2c1 (2 µM) | inactive: 0 | inactive: 0 | inactive: 0 | inactive: 0 | inactive: 0 | inactive: 0 | inactive: 0 | inactive: 0 | inactive: 0 | inactive: 0 | inactive: 0 | inactive: 0 | inactive: 0 | inactive: 0 | inactive: 0 | inactive: 0 | inactive: 0 | inactive: 0 | 0 | 0
FC(F)c1nc2ccccc2n1-c1nc(N2CCOCC2)nc(N2CCOCC2)n1 (2 µM) | inactive: 0 | inactive: 0 | inactive: 0 | inactive: 0 | inactive: 0 | inactive: 0 | inactive: 0 | inactive: 0 | inactive: 0 | inactive: 0 | inactive: 0 | inactive: 0 | inactive: 0 | inactive: 0 | inactive: 0 | inactive: 0 | inactive: 0 | inactive: 0 | 3 | 0
C[C@@]1(c2ncncc2F)NC(=O)c2cc(-c3cn[nH]c3)ccc21 (10 µM) | inactive: 0 | inactive: 0 | inactive: 0 | inactive: 0 | inactive: 0 | inactive: 0 | inactive: 0 | inactive: 0 | inactive: 0 | inactive: 0 | inactive: 0 | inactive: 0 | inactive: 0 | inactive: 0 | inactive: 0 | inactive: 0 | inactive: 0 | inactive: 0 | 0 | 0
c1cc(-c2c[nH]c3nccc(N4CCC[C@@]5(CCCCN5)C4)c23)ncn1 (10 µM) | inactive: 0 | inactive: 0 | inactive: 0 | inactive: 0 | inactive: 0 | inactive: 0 | inactive: 0 | inactive: 0 | inactive: 0 | inactive: 0 | inactive: 0 | inactive: 0 | inactive: 0 | inactive: 0 | inactive: 0 | inactive: 0 | inactive: 0 | inactive: 0 | 0 | 0
Cc1nc(-c2cn3c(n2)-c2ccc(-c4cnn(C(C)(C)C(N)=O)c4)cc2OCC3)n(C(C)C)n1 [Taselisib] (10 µM) | inactive: 0 | inactive: 0 | inactive: 0 | inactive: 0 | inactive: 0 | inactive: 0 | inactive: 0 | inactive: 0 | inactive: 0 | inactive: 0 | inactive: 0 | inactive: 0 | inactive: 0 | inactive: 0 | inactive: 0 | inactive: 0 | inactive: 0 | inactive: 0 | 0 | 0
C[C@]1(O)CCN(c2nc(N3C[C@H](O)[C@@H](O)C3)cc(C(F)(F)F)c2C#N)C1 (10 µM) | inactive: 0 | inactive: 0 | inactive: 0 | inactive: 0 | inactive: 0 | inactive: 0 | inactive: 0 | inactive: 0 | inactive: 0 | inactive: 0 | inactive: 0 | inactive: 0 | inactive: 0 | inactive: 0 | inactive: 0 | inactive: 0 | inactive: 0 | inactive: 0 | 0 | 0
C=CC(=O)Nc1cc(Nc2ncc(Cl)c(-c3c[nH]c4ccccc34)n2)c(OC)cc1N(C)CCN(C)C [Mutant EGFR inhibitor] (2.5 µM) | inactive: 0 | inactive: 0 | inactive: 0 | inactive: 0 | inactive: 0 | inactive: 0 | inactive: 0 | inactive: 0 | inactive: 0 | inactive: 0 | inactive: 0 | inactive: 0 | inactive: 0 | inactive: 0 | inactive: 0 | inactive: 0 | inactive: 0 | inactive: 0 | 2 | 0
Cn1nccc1Nc1nccc(-c2ccn([C@H](CO)c3ccc(Cl)c(F)c3)c(=O)c2)n1 [Ravoxertinib hydrochloride] (10 µM) | inactive: 0 | inactive: 0 | inactive: 0 | inactive: 0 | inactive: 0 | inactive: 0 | inactive: 0 | inactive: 0 | inactive: 0 | inactive: 0 | inactive: 0 | inactive: 0 | inactive: 0 | inactive: 0 | inactive: 0 | inactive: 0 | inactive: 0 | inactive: 0 | 0 | 0
Cc1cc(Nc2ncnc3ccc(NC4=NC(C)(C)CO4)cc23)ccc1Oc1ccn2ncnc2c1 [Tucatinib (hemiethanolate)] (2.5 µM) | inactive: 0 | inactive: 0 | inactive: 0 | inactive: 0 | inactive: 0 | inactive: 0 | inactive: 0 | inactive: 0 | inactive: 0 | inactive: 0 | inactive: 0 | inactive: 0 | inactive: 0 | inactive: 0 | inactive: 0 | inactive: 0 | inactive: 0 | inactive: 0 | 0 | 0
CCc1cc2c(cc1N1CCC(N3CCOCC3)CC1)C(C)(C)c1[nH]c3cc(C#N)ccc3c1C2=O [Alectinib (Hydrochloride)] (2 µM) | inactive: 0 | inactive: 0 | inactive: 0 | inactive: 0 | inactive: 0 | inactive: 0 | inactive: 0 | inactive: 0 | inactive: 0 | inactive: 0 | inactive: 0 | inactive: 0 | inactive: 0 | inactive: 0 | inactive: 0 | inactive: 0 | inactive: 0 | inactive: 0 | 0 | 0
Nc1ncnc2c1c(-c1ccc(Oc3ccccc3)cc1)nn2C1CCCC1 (2.5 µM) | inactive: 0 | inactive: 0 | inactive: 0 | inactive: 0 | inactive: 0 | inactive: 0 | inactive: 0 | inactive: 0 | inactive: 0 | inactive: 0 | inactive: 0 | inactive: 0 | inactive: 0 | inactive: 0 | inactive: 0 | inactive: 0 | inactive: 0 | inactive: 0 | 0 | 0
Cc1cc(O)c2c(c1)C(=O)c1cc(O)cc(O)c1C2=O [Emodin] (10 µM) | inactive: 0 | inactive: 0 | inactive: 0 | inactive: 0 | inactive: 0 | inactive: 0 | inactive: 0 | inactive: 0 | inactive: 0 | inactive: 0 | inactive: 0 | inactive: 0 | inactive: 0 | inactive: 0 | inactive: 0 | inactive: 0 | inactive: 0 | inactive: 0 | 0 | 0
CN1CCN(c2cnc3c(C4CCN(C(=O)c5ccc(OC(F)(F)F)cc5N)CC4)ncnc3c2)CC1 (10 µM) | inactive: 0 | inactive: 0 | inactive: 0 | inactive: 0 | inactive: 0 | inactive: 0 | inactive: 0 | inactive: 0 | inactive: 0 | inactive: 0 | inactive: 0 | inactive: 0 | inactive: 0 | inactive: 0 | inactive: 0 | inactive: 0 | inactive: 0 | inactive: 0 | 0 | 0
CCCCCCCCCCCCC/C=C/[C@@H](O)[C@@H](N)CO [D-erythro-Sphingosine] (2.5 µM) | inactive: 0 | inactive: 0 | inactive: 0 | inactive: 0 | inactive: 0 | inactive: 0 | inactive: 0 | inactive: 0 | inactive: 0 | inactive: 0 | inactive: 0 | inactive: 0 | inactive: 0 | inactive: 0 | inactive: 0 | inactive: 0 | inactive: 0 | inactive: 0 | 0 | 0
O=C(NCCN1CCOCC1)c1cc2c(Oc3ccc(NC(=O)C4(C(=O)Nc5ccc(F)cc5)CC4)cc3)ccnc2[nH]1 [Tyrosine kinase inhibitor] (10 µM) | inactive: 0 | inactive: 0 | inactive: 0 | inactive: 0 | inactive: 0 | inactive: 0 | inactive: 0 | inactive: 0 | inactive: 0 | inactive: 0 | inactive: 0 | inactive: 0 | inactive: 0 | inactive: 0 | inactive: 0 | inactive: 0 | inactive: 0 | inactive: 0 | 0 | 0
O=C(NOCC(O)CO)c1cc(Br)c(F)c(F)c1Nc1ccc(I)cc1F (stereo not given) (2.5 µM) | inactive: 0 | inactive: 0 | inactive: 0 | inactive: 0 | inactive: 0 | inactive: 0 | inactive: 0 | inactive: 0 | inactive: 0 | inactive: 0 | inactive: 0 | inactive: 0 | inactive: 0 | inactive: 0 | inactive: 0 | inactive: 0 | inactive: 0 | inactive: 0 | 0 | 0

Some of the entries so far, with tabs:
Structure (SMILES)	kinase-Nluc reporter destabilization hit call (RET)	kinase-Nluc reporter destabilization hit call [1]	kinase-Nluc reporter destabilization hit call (RIOK1)	kinase-Nluc reporter destabilization hit call (RIPK1)	kinase-Nluc reporter destabilization hit call (RIPK2)	kinase-Nluc reporter destabilization hit call (ROR2)	kinase-Nluc reporter destabilization hit call (RPS6KA1)	kinase-Nluc reporter destabilization hit call (SPHK1)	kinase-Nluc reporter destabilization hit call (SRC)	kinase-Nluc reporter destabilization hit call (STK24)	kinase-Nluc reporter destabilization hit call (STK38)	kinase-Nluc reporter destabilization hit call (SYK)	kinase-Nluc reporter destabilization hit call (TEC)	kinase-Nluc reporter destabilization hit call (TYK2)	kinase-Nluc reporter destabilization hit call (ULK3)	kinase-Nluc reporter destabilization hit call (YES1)	kinase-Nluc reporter destabilization hit call (ZAK)	kinase-Nluc reporter destabilization hit call (ZAP70)	number of time points (ABL1)	number of time points (AKT1)
Nc1ncnc2c1c(-c1ccc(Oc3ccccc3)cc1)nn2C1CCCC1 (2.5 µM)	inactive: 0	inactive: 0	inactive: 0	inactive: 0	inactive: 0	inactive: 0	inactive: 0	inactive: 0	inactive: 0	inactive: 0	inactive: 0	inactive: 0	inactive: 0	inactive: 0	inactive: 0	inactive: 0	inactive: 0	inactive: 0	0	0
Cc1cc(O)c2c(c1)C(=O)c1cc(O)cc(O)c1C2=O [Emodin] (10 µM)	inactive: 0	inactive: 0	inactive: 0	inactive: 0	inactive: 0	inactive: 0	inactive: 0	inactive: 0	inactive: 0	inactive: 0	inactive: 0	inactive: 0	inactive: 0	inactive: 0	inactive: 0	inactive: 0	inactive: 0	inactive: 0	0	0
